Measurements reported in PubChem BioAssay (Tox21).
Inconclusive results, whose numbers are uncertain, are shown with a selection of clear calls. For part of these data: A potency beside an inconclusive call is a rough fit, not a confirmed value. Active and inactive are the calls of the source. Unless noted, calls come from the whole dose curve.

Chains of the proteins cited; added tags and fusions are not shown. Lines headed by an entry give the natural chain unless they say otherwise; changes in a name come on top.
UniProt P11229: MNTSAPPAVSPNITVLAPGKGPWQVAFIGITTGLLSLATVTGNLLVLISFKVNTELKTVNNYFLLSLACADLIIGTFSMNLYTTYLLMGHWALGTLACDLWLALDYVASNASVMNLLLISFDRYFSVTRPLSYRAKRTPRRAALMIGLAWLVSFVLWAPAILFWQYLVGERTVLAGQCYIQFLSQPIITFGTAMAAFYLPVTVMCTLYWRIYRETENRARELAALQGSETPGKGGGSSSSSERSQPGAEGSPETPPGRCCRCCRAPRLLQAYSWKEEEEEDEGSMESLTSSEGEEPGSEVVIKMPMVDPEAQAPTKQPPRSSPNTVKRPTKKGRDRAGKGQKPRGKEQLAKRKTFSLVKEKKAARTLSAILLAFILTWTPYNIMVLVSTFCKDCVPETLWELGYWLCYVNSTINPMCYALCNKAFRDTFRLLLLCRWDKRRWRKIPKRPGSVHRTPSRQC
UniProt P14416, whole entry, looked up: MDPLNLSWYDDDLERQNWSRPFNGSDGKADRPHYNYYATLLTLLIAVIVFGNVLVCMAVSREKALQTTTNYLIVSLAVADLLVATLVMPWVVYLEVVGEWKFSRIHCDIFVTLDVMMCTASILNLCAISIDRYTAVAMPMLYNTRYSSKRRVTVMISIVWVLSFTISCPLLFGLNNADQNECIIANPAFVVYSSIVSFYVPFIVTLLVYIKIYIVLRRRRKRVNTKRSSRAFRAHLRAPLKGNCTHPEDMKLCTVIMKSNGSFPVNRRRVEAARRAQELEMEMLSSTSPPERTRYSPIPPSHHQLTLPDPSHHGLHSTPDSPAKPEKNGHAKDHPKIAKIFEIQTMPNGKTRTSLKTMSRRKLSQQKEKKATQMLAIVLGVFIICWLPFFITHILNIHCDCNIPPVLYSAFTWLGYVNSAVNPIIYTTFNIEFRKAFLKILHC
UniProt P28223, whole entry, looked up: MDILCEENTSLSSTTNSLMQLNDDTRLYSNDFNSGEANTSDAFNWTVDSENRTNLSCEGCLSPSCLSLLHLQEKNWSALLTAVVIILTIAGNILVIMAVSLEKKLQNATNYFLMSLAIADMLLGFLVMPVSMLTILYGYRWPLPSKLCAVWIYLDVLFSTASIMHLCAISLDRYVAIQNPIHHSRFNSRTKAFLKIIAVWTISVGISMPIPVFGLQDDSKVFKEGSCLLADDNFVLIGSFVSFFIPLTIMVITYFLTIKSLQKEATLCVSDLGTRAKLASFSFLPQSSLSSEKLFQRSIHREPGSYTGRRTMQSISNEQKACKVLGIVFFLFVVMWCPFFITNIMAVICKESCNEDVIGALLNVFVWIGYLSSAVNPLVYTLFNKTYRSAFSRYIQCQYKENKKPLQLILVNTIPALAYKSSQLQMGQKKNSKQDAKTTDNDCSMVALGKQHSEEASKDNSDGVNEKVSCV

What was measured:
[1] = p53 small molecule agonists, cell-based qHTS assay with human liver microsomes: qHTS cell viability counter screen (AID 1963579); note: nearly all actives have a fitted effect of over 45% in size; note: potency is the fitted concentration of half-maximal effect
Method in brief: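 Cells carrying the p53 response-element beta-lactamase reporter are treated for 16 h at 37 C with test compounds in the presence of human liver microsomes and NADPH (both 0.5 mg/mL final); ATP-based CellTiter-Glo luminescence then reports viability.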

[2] = molecular target: Muscarinic acetylcholine receptor M1 (Homo sapiens) (UniProt P11229); assay: Cholinergic receptor muscarinic 1 (CHRM1) small molecule antagonists, cell-based qHTS assay (AID 1963588); note: nearly all actives have a fitted effect of over 40% in size; note: potency is the fitted concentration of half-maximal effect
Method in brief: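 CHRM1-CHO calcium-flux assay, antagonist mode. Cells were seeded 18 h, dye-loaded 1 h at 37 C and given compound for 5 min at RT, then acetylcholine was added at 50nM. FDSS fluorescence was read 3 min; 15 concentrations, three runs.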

[3] = cAMP Responsive Elements (CRE) small molecule antagonists, cell-based qHTS assay (AID 1963591; active = well fitted inhibition curve with a large enough effect in the signal ratio in the repeat runs, not every such curve was filed as active; inconclusive = weak or mixed curves, or effect the other way; the % refers to the signal ratio; note: potency is the fitted concentration of half-maximal effect; for activity change, negative = inhibition: % is set by controls: 0 for no effect and ±100 for the full control effect); conditions: CRE-bla HEK293T, beta-lactamase FRET ratio; activity change, negative = inhibition: at 92.4 µM (top of the series) unless noted
Method in brief: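 qHTS in CRE-bla HEK 293T cells: compound in DMSO, then 0.25 uM NKH477 (final), 3 h at 37 °C/5% CO2; beta-lactamase FRET read-out after 2 h substrate incubation.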

[4] = molecular target: Beta-2 adrenergic receptor (Homo sapiens) (UniProt P07550); assay: Adrenergic beta2 receptor (ADRB2) small molecule antagonists, cell-based qHTS assay (AID 1963592); conditions: CHO-ADRB2 cells, isoproterenol-stimulated cAMP HTRF ratio, 0.5 h; activity change, negative = inhibition: at 92.4 µM (top of the series) unless noted; note: potency is the fitted concentration of half-maximal effect; nearly all actives have a fitted effect of over 50% in size
Method in brief: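 Cells (CHO, stable ADRB2 overexpression) incubated 18-20hr at 37C; compounds added from DMSO; agonist mix (1nM isoproterenol, 100uM IBMX, 25uM Ro-20-1724) added; 0.5hr RT; d2-cAMP and anti-cAMP-cryptate added; 1hr RT; 665/615 nm read.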

[5] = molecular target: Beta-2 adrenergic receptor (Homo sapiens) (UniProt P07550); assay: Adrenergic beta2 receptor (ADRB2) small molecule agonists, cell-based qHTS assay (AID 1963593); conditions: CHO-ADRB2 cells, cAMP HTRF, 30 min; note: potency is the fitted concentration of half-maximal effect;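 for activation: CHO cells stably overexpressing human ADRB2; % is set by controls: 0 for no effect and ±100 for the full control effect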
Method in brief: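 CHO cells stably over-expressing ADRB2 were plated overnight at 37C, then dosed with compounds plus a stimulation mix containing 100uM IBMX and 25uM Ro-20-1724 for 0.5hr at room temperature. cAMP was measured by HTRF competition, 1hr.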

[6] = molecular target: D(2) dopamine receptor (Homo sapiens) (UniProt P14416); assay: Dopamine D2 receptor (DRD2) small molecule antagonists, cell-based qHTS assay (AID 1963595; active = well fitted inhibition curve with a large enough effect in the signal ratio in the repeat runs, with a control signal flat; inconclusive = weak or mixed curves, or effect the other way; the % refers to the signal ratio; note: potency is the fitted concentration of half-maximal effect); conditions: HEK293-DRD2 cAMP HTRF antagonist mode; activity change, negative = inhibition: at 92.4 µM (top of the series) unless noted
Method in brief: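 HEK293 cells stably expressing DRD2, preincubated with 0.1 mM Ro20-1724 and compounds 10 min, were stimulated with 200 nM NKH477 plus 12 nM quinpirole for 30 min at room temperature; cAMP measured by HTRF (665/620 nm).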

[7] = molecular target: 5-hydroxytryptamine receptor 2A (Homo sapiens) (UniProt P28223); assay: 5-hydroxytryptamine receptor 2A (HTR2A) small molecule agonists, cell-based qHTS assay (AID 1963587); note: potency is the fitted concentration of half-maximal effect; nearly all actives have a fitted effect of over 30% in size
Method in brief: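 HTR2A-CHO cells, plated 18 h at 37 C/5% CO2, dye-loaded 1 h at 37 C; compounds in DMSO added by pin tool (agonist mode). Intracellular calcium flux read as kinetic fluorescence on FDSS over 2 min at 1 s intervals.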

[8] = cAMP Responsive Elements (CRE) small molecule agonists, cell-based qHTS assay (AID 1963590); conditions: CRE-bla HEK293T, beta-lactamase FRET ratio, 3 h; activation: at 92.4 µM (top of the series) unless noted; note: potency is the fitted concentration of half-maximal effect; for activation: % is set by controls: 0 for no effect and ±100 for the full control effect
Method in brief: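 FRET-based beta-lactamase readout (LiveBLAzer B/G, 2 h RT) quantified CRE activation in HEK 293T CRE-bla cells after 3 h treatment with DMSO-dissolved compounds.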

[9] = molecular target: 5-hydroxytryptamine receptor 2A (Homo sapiens) (UniProt P28223); assay: 5-hydroxytryptamine receptor 2A (HTR2A) small molecule antagonists, cell-based qHTS assay (AID 1963586); note: nearly all actives have a fitted effect of over 45% in size; note: potency is the fitted concentration of half-maximal effect
Method in brief: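 Antagonist-mode intracellular calcium assay: DOI (4 nM) added after 5 min compound pre-incubation at room temperature to dye-loaded HTR2A-CHO cells. Fluorescence followed for 3 min, sampled every second.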

[10] = molecular target: D(2) dopamine receptor (Homo sapiens) (UniProt P14416); assay: Dopamine D2 receptor (DRD2) small molecule agonists, cell-based qHTS assay (AID 1963594); conditions: HEK293-DRD2 cAMP HTRF, agonist mode, 30 min; activation: at 92.4 µM (top of the series) unless noted; note: % is set by controls: 0 for no effect and ±100 for the full control effect; nearly all actives have a fitted effect of over 35% in size
Method in brief: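 HEK293 cells stably expressing DRD2 were cultured 24 h at 37 C, then given Ro20-1724 (0.1 mM final) and compounds for 10 min at room temperature. NKH477 (200nM) was then added for 30 min. cAMP was read by HTRF.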

[11] = activation: at 92.4 µM (top of the series) unless noted

With `O=C(CCCN1CCC(O)(c2ccc(Br)cc2)CC1)c1ccc(F)cc1` the Potency [1] was inconclusive: 17.8 µM [cytotoxic, single point], the Potency [2] was inconclusive: 20.5 µM [inhibitor, single point] and the Potency [3] was “inactive”. For the same compound, the Potency [4] was inconclusive: 10.6 µM [inhibitor, partial curve, poor fit], the Potency [5, 11] was inconclusive: 11.9 µM [inhibitor, partial curve, poor fit] and the Potency [6] was active: 0.188 µM.
In the case of `O=C(NCCO[N+](=O)[O-])c1cccnc1`, the Potency [1] is reported as “inactive”, the Potency [7] is reported as inconclusive: 12 µM [activator, partial curve, poor fit] and the Potency [5, 11] is reported as “inactive”.
For `COC[C@H](c1ccc(C(F)(F)F)cc1)N1CCN(C2(C)CCN(C(=O)c3c(C)ncnc3C)CC2)C[C@H]1C`, the Potency [1] was “inactive”, the Potency [8] was inconclusive: 11.9 µM [rising, full curve, poor fit] and the activity change, negative = inhibition [3] was inconclusive: 16.6% [at 42.4 µM].
With `CC(C)(C)c1ccccc1` the Potency [1] was inconclusive: 4.58 µM [cytotoxic, single point], the Potency [8] was “inactive” and the Potency [5, 11] was inconclusive: 1.09 µM [inhibitor, single point].
For `CC1(C)[C@H](C(=O)OCc2cccc(Oc3ccccc3)c2)[C@@H]1C=C(Cl)Cl`, the Potency [1] was “inactive”, the Potency [2] was “inactive” and the activation [5, 11] was inconclusive: 41.5%.
For `CCOC(=O)OC(C)OC(=O)[C@@H]1N2C(=O)[C@@H](NC(=O)[C@H](N)c3ccccc3)[C@H]2SC1(C)C` (some centres undefined), the Potency [1] was inconclusive: 0.793 µM [cytotoxic, single point], the Potency [9] was inconclusive: 23.1 µM [inhibitor, partial curve, poor fit] and the Potency [5, 11] was inconclusive: 0.0008 µM.
With `COc1cc(N)c(Cl)cc1C(=O)NC1CCN(CCCOc2ccc(F)cc2)CC1OC` (centres undefined) the Potency [1] was “inactive”, the Potency [8] was inconclusive: 29.8 µM [rising, partial curve, poor fit] and the Potency [4] was active: 23.7 µM. For the same compound, the Potency [5, 11] was inconclusive: 26.6 µM [inhibitor] and the Potency [6] was active: 11.9 µM.
For `O=C(O)c1ccc2c(c1)nc(C(=O)NC1CCN(C3CC3)CC1)n2Cc1cc(-c2ccc(Cl)s2)on1`, the Potency [1] was inconclusive: 0.464 µM [rising, partial curve, poor fit], the Potency [7] was inconclusive: 3.95 µM [activator, partial curve] and the Potency [8] was inconclusive: 12.4 µM [rising, partial curve]. The Potency [3] was inconclusive: 13.9 µM [activator], the activation [5, 11] was inconclusive: -17.8% [at 19 µM] and the activation [10] was inactive: 23% [at 19 µM].
With `NC(=O)Nc1ccccc1` the Potency [1] was “inactive” and the Potency [8] was “inactive”.
In the case of `Cc1c(F)c(N2CCNC(C)C2)cc2c1c(=O)c(C(=O)O)cn2C1CC1` (centres undefined), the Potency [1] is reported as “inactive”, the Potency [8] is reported as inconclusive: 9.44 µM [rising, full curve] and the activity change, negative = inhibition [3] is reported as inconclusive: 4.47% [at 42.4 µM].
With `Cc1c(N)c(=O)n(-c2ccccc2)n1C` the Potency [1] was “inactive” and the Potency [8] was “inactive”.
For `CCC[C@H](N[C@@H](C)C(=O)N1[C@H](C(=O)O)C[C@@H]2CCCC[C@@H]21)C(=O)OCC`, the Potency [1] was inconclusive: 5 µM [cytotoxic, single point], the Potency [9] was inconclusive: 0.0007 µM [inhibitor, full curve, poor fit] and the activation [5, 11] was inconclusive: 45.9% [at 19 µM].
With `NCCN1CCOCC1` the Potency [1] was inconclusive: 51.3 µM [cytotoxic, single point], the Potency [2] was inconclusive: 11.9 µM [inhibitor, partial curve] and the activation [5, 11] was inconclusive: -12.4%.
With `CCCCC1(COC(=O)CCC(=O)O)C(=O)N(c2ccccc2)N(c2ccccc2)C1=O` the Potency [1] was “inactive”, the Potency [8] was inconclusive: 48.4 µM [rising, partial curve] and the activity change, negative = inhibition [3] was inconclusive: 7.79%. The Potency [5, 11] was inconclusive: 8.6 µM [inhibitor, partial curve, poor fit], the activation [5, 11] was inconclusive: -11.6% and the activation ([5]; at 42.5 µM (top of the series)) was inactive: 6.56%.
For `Oc1ccc(C(O)CNCCCCCCNCC(O)c2ccc(O)c(O)c2)cc1O` (centres undefined), the Potency [1] was inconclusive: 12.6 µM [rising, single point], the Potency [9] was “inactive” and the Potency [8] was inconclusive: 11.9 µM [activator, full curve]. For the same compound, the Potency [5, 11] was inconclusive: 26.6 µM [activator, partial curve, poor fit] and the Potency [6] was inconclusive: 33.5 µM [inhibitor, single point].
In the case of `CCCc1nc(C)c2c(=O)[nH]c(-c3cc(S(=O)(=O)N4CCN(CC)CC4)ccc3OCC)nn12`, the Potency [1] is reported as “inactive”, the Potency [8] is reported as inconclusive: 23.7 µM [rising, partial curve] and the activity change, negative = inhibition [3] is reported as inconclusive: 15.8% [at 42.4 µM]. The activation [5, 11] was inconclusive: -62.4% [at 42.5 µM] and the Potency [10] was “inactive”.
For `CC(=O)OCCOC(C)=O`, the Potency [1] was inconclusive: 2.88 µM [rising, partial curve], the Potency [2] was “inactive” and the Potency [8] was “inactive”. The Potency [5, 11] was “inactive”.
In the case of `O=C(O)c1cccc(Cl)n1`, the Potency [1] is reported as active: 40.8 µM, the Potency [2] is reported as “inactive” and the Potency [8] is reported as inconclusive: 30.6 µM [rising, partial curve]. For the same compound, the Potency [5, 11] was “inactive”.
